From patent US8394828B2 (Janssen Pharmaceutica, NV, priority 2003, dated 2013)
The match of structure and compound is tentative.

Sequences of proteins named here, by UniProt entry; tags and fusion partners are left off.
UniProt Q8NER1, whole entry: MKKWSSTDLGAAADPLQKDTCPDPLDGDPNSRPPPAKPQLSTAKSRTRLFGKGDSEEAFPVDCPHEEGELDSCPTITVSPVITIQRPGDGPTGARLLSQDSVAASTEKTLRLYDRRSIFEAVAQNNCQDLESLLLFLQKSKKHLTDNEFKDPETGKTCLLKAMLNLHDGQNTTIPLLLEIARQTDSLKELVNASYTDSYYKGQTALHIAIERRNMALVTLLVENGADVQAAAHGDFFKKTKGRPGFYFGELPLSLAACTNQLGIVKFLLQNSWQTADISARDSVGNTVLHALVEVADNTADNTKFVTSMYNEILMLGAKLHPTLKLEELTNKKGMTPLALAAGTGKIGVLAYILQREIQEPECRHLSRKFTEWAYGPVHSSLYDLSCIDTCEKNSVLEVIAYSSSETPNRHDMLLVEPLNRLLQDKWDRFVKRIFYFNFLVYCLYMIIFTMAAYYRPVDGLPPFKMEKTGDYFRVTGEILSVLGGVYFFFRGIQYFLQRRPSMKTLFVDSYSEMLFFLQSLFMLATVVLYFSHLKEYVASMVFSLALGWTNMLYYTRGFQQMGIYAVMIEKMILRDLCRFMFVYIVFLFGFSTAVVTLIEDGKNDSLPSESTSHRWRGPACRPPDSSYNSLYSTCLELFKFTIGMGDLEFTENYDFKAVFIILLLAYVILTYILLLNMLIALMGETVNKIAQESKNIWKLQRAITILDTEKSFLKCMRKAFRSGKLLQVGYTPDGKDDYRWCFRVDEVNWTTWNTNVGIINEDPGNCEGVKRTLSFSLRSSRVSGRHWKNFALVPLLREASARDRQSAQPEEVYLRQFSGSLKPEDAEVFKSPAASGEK

Key:
human VR1 [1] = target: T1, human VR1 (Homo sapiens, UniProt Q8NER1); assay: Human VR1 functional assay (intracellular Ca++, FLIPR, capsaicin challenge); format: cell-based; settings: read-out: FLIPR functional assay IC50 hVR1
human VR1 [2] = target: T1, human VR1; assay: Human VR1 [3H] RTX binding assay; settings: read-out: 3H-RTX binding assay Ki hVR1

- IC50 (human VR1 [1]): 114 nM
- Ki (human VR1 [2]): 40.3 nM
SMILES: CCCCC(C)(C)c1ccc(CCC(=O)Nc2cnc3ccccc3c2)cc1
